{
  "source": "PubChem BioAssay AID504444",
  "about": "(National Center for Advancing Translational Sciences (NCATS), 2011)",
  "note": "The campaign covered roughly 360,000 compounds. About 7,500 (2.1%) were called active. The inconclusive results got no clear call from the source; some entries with a clear call stand among them for comparison. Calls come from the whole dose curve; as a rule, active = well fitted inhibition curve with a large enough effect; inconclusive = small, poorly fitted or top-dose-only effect, or effect the other way; inactive = flat fitted curve, though single readings scatter. Potencies of inconclusive entries are doubtful fits and often do not repeat. % is set by controls: 0 for no effect and ±100 for the full control effect; potency is the fitted concentration of half-maximal effect.",
  "data": [
    {"assay": "Nrf2 qHTS screen for inhibitors; note: nearly all actives have a fitted effect of over 60% in size", "settings": "A549 ARE-Fluc reporter, luciferase luminescence, 18-24 h; activity change, negative = inhibition: at 46 µM (top of the series)", "procedure,_shortened": "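Two sequential reads on A549 ARE_Fluc cells exposed to compound for 18-24 h: a CellTiter-Fluor fluorescence read for viability, then a luciferase luminescence read for Nrf2/ARE activity.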", "values": [
      {"compound": "COc1ccc(NC(=O)CSc2ccccn2)cc1", "Potency": "inconclusive: 25.9 µM [activator, single point]"},
      {"compound": "COc1ccc(OCCN2C(=O)c3cccc(N)c3C2=O)cc1", "Potency": "inconclusive: 14.6 µM [activator, partial curve]"},
      {"compound": "O=S(=O)(c1cccs1)N1CCN(CC(O)COc2cccc(Br)c2)CC1", "note": "(stereo unspecified)", "Potency": "inconclusive: 1.16 µM [falling, partial curve, poor fit]"},
      {"compound": "COc1ccccc1CNC(=O)c1ccccc1C(=O)NC(CC(C)C)C(=O)NCc1ccccc1OC", "note": "(stereo unspecified)", "Potency": "inactive"},
      {"compound": "Cc1cc(OCCCCOc2ccc(S(N)(=O)=O)c(C)c2)ccc1S(N)(=O)=O", "Potency": "active: 11.6 µM"},
      {"compound": "Cc1ccc(-c2c(C3C4C=CCCC4(C)C(=O)N3Cc3ccccc3)ccc3ccccc23)cc1", "note": "(stereo unspecified)", "Potency": "inconclusive: 29.1 µM [falling, single point]"},
      {"compound": "Cc1cccc(NC(=O)c2cnc3n(c2=O)CCS3)c1", "Potency": "inconclusive: 10.3 µM [activator, partial curve]"},
      {"compound": "Cc1ccccc1C(=O)Nc1cccc(-c2cn3ccccc3n2)c1", "Potency": "inconclusive: 29.1 µM [falling, single point]"},
      {"compound": "Cc1ccc(NC(=O)COC(=O)C2(C)CC2(Cl)Cl)cc1S(=O)(=O)N1CCOCC1", "note": "(stereo unspecified)", "Potency": "inactive"},
      {"compound": "c1cncc(-c2nc(N3CCCCCC3)c3ccccc3n2)c1", "Potency": "inconclusive: 9.2 µM [falling, partial curve, poor fit]"},
      {"compound": "O=C(Cn1ncc2c3ccccc3n(Cc3cccc(Cl)c3)c2c1=O)NCC1CCCO1", "note": "(stereo unspecified)", "Potency": "inconclusive: 3.66 µM [activator, single point]"},
      {"compound": "CCNC(=O)COC(=O)c1cccc(Br)c1", "Potency": "inactive"},
      {"compound": "CC1=C(c2ccc(C(C)C)cc2)S(=O)(=O)NC1=NCc1ccc(Cl)cc1", "Potency": "inactive"},
      {"compound": "COc1ccc(/C=N/NC(=O)c2cc3c(OC)ccc(OC)c3[nH]2)cc1O", "Potency": "inactive"},
      {"compound": "CCCc1cc(C(=O)NCC(C)C)no1", "Potency": "inconclusive: 7.31 µM [activator, partial curve]"},
      {"compound": "Cc1ccc(Cl)cc1N1CCN(S(=O)(=O)c2cnc[nH]2)CC1", "Potency": "inconclusive: 25.9 µM [activator, single point]"},
      {"compound": "COc1ccc2nc(SCCOC(=O)Nc3ccc(Cl)cc3)nc(C)c2c1", "Potency": "active: 23.1 µM"},
      {"compound": "COC(=O)C(C)Oc1ccc(Cl)c(CN2OCC(C)(C)C2=O)c1", "note": "(stereo unspecified)", "Potency": "inconclusive: 0.517 µM [falling, partial curve]"},
      {"compound": "COc1ncnc2c1oc1nc(CC(C)C)c3c(c12)CC(C)(C)OC3", "Potency": "inconclusive: 6.51 µM [falling, single point]"},
      {"compound": "CC(C)CC(=O)NC(Nc1ccccc1F)C(Cl)(Cl)Cl", "note": "(stereo unspecified)", "Potency": "inactive"},
      {"compound": "S=c1[nH]c(-c2ccccc2)cn1/N=C/c1cccs1", "Potency": "inconclusive: 0.58 µM [activator, full curve]"},
      {"compound": "CCc1nc(Nc2ccc(OC)c(OC)c2)c2nnn(Cc3ccccc3Cl)c2n1", "Potency": "active: 10.3 µM"},
      {"compound": "COc1ccccc1NC(=O)CC1C(=O)NCCN1C(=O)Nc1ccccc1", "note": "(stereo unspecified)", "Potency": "inactive"},
      {"compound": "O=C(Nc1ccc(Br)cc1)c1cc(S(=O)(=O)Nc2ccccn2)ccc1Cl", "Potency": "inconclusive: 11.6 µM [falling, partial curve]"},
      {"compound": "CSc1ccc(C(=S)N2CCN(Cc3ccccc3)CC2)cc1", "Potency": "inconclusive: 32.6 µM [falling, single point]"},
      {"compound": "O=C1CCSc2ccc(S(=O)(=O)Nc3cccc(C(F)(F)F)c3)cc2N1", "Potency": "inactive"},
      {"compound": "Cc1cc([N+](=O)[O-])nn1Cc1ccc(C(=O)N/N=C/c2ccc(O)cc2O)cc1", "Potency": "inconclusive: 18.4 µM [falling, partial curve]"},
      {"compound": "CC1CCCCC12NC(=S)N(c1ccccc1)N2", "note": "(stereo unspecified)", "Potency": "inactive"},
      {"compound": "COC(=O)c1ccc(-n2nnnc2SC)cc1", "Potency": "inconclusive: 0.146 µM [falling, full curve, poor fit]"},
      {"compound": "CCOc1ccc(NC(=O)CNC(=O)c2nn(-c3ccc(OC)cc3)c(=O)c3ccccc23)cc1", "Potency": "inconclusive: 29.1 µM [falling, single point]"},
      {"compound": "O=C(Nc1nc2cc3c(cc2s1)OCCO3)c1cccs1", "Potency": "inconclusive: 32.6 µM [falling, single point]"},
      {"compound": "CCC(=O)c1ccc(OCC(O)CN2CCN(C(c3ccccc3)c3ccccc3)CC2)cc1", "note": "(stereo unspecified)", "Potency": "inconclusive: 32.6 µM [falling, single point]"},
      {"compound": "CCc1cccc(C)c1NC(=O)Cn1ncc2c3ccccc3n(Cc3ccccc3)c2c1=O", "Potency": "inactive"},
      {"compound": "C/C(=N/NC(=O)CNC(=O)c1cccnc1)c1ccc(Cl)cc1", "Potency": "inconclusive: 29.1 µM [falling, single point]"},
      {"compound": "COCCn1c(SCc2ccc(C(=O)OC)o2)nc2cc(Cl)ccc2c1=O", "Potency": "inconclusive: 0.164 µM [falling, full curve, poor fit]"},
      {"compound": "CCCSc1ncnc2c1c(-c1ccccc1)cn2-c1ccccc1OC", "activity change, negative = inhibition": "inactive: 9.15% [at 9.27 µM]"},
      {"compound": "CC(C)N1C(=O)/C(=C/c2nc3ccccc3c(=O)n2-c2ccccc2)c2ccccc21", "Potency": "inconclusive: 29.1 µM [falling, single point]"},
      {"compound": "O=[N+]([O-])c1ccccc1N/N=C/c1cc2ccccc2nc1Cl", "Potency": "inconclusive: 5.17 µM [activator, partial curve, poor fit]"},
      {"compound": "COc1ccc(CNC(=O)c2ccc(CS(=O)(=O)c3ccc(Br)cc3)o2)cc1", "Potency": "inconclusive: 18.4 µM [falling, single point]"},
      {"compound": "CCCCOC(=O)c1ccc(Nc2nc3ccc(C(=O)c4ccccc4)cc3n3cnnc23)cc1", "Potency": "inactive"},
      {"compound": "Cc1ccc(C2=NN(C(=O)CCl)C(c3cccs3)C2)o1", "note": "(stereo unspecified)", "Potency": "inactive"},
      {"compound": "Cc1ccccc1-n1c(C)nnc1SCC(=O)N1CCc2ccccc2C1", "Potency": "inactive"},
      {"compound": "C=CCNC(=O)c1onc(CSc2cccc3ccccc23)c1C(=O)O", "Potency": "inconclusive: 29.1 µM [activator, single point]"},
      {"compound": "CCOCc1nnc(NC(=O)c2cc(OC)c(OC)cc2[N+](=O)[O-])s1", "Potency": "inactive"},
      {"compound": "CCC(C)NC(=O)c1cn(CC)c2ccc(S(=O)(=O)N3CCc4ccccc4C3)cc2c1=O", "note": "(stereo unspecified)", "Potency": "active: 23.1 µM"},
      {"compound": "Cc1ccc(S(=O)(=O)c2c(N)n(Cc3ccco3)c3nc4ccccc4nc23)cc1C", "Potency": "inconclusive: 23.1 µM [falling, single point]"},
      {"compound": "O=C(Cc1ccc(N2CCNC2=O)cc1)N1CCCC(Nc2ccc(F)c(F)c2)C1", "note": "(stereo unspecified)", "Potency": "inactive"},
      {"compound": "CC(C)c1ccc(NC(=O)[C@H](NC(=O)[C@@H]2Cc3ccccc3CN2)c2ccccc2)cc1", "Potency": "inconclusive: 18.4 µM [activator, partial curve]"},
      {"compound": "COc1ccccc1NC(=O)C(=O)Nc1ccccn1", "Potency": "inconclusive: 2.31 µM [activator, partial curve, poor fit]"},
      {"compound": "CC(C=NNc1ccc([N+](=O)[O-])cn1)=Cc1ccccc1", "Potency": "inconclusive: 3.66 µM [activator, full curve]"},
      {"compound": "COc1cccc(CNC(=O)C2CCC(CNc3nc(=S)[nH]c4ccccc34)CC2)c1", "note": "(stereo unspecified)", "Potency": "inconclusive: 29.1 µM [falling, single point]"},
      {"compound": "O=C(CSc1nc2ccccc2n1Cc1cccc(F)c1)N1CCN(c2ccc(F)cc2)CC1", "Potency": "inconclusive: 5.8 µM [falling, partial curve]"},
      {"compound": "O=C(NC1CCCCCC1)c1ccc(CS(=O)c2cccc(Cl)c2)o1", "note": "(stereo unspecified)", "Potency": "inactive"},
      {"compound": "CN(CCOc1ccc(Cl)cc1)C(=O)c1cccc(S(=O)(=O)N2CCN(c3ccccc3)CC2)c1", "Potency": "active: 5.8 µM"},
      {"compound": "O=C(NC1CCN(Cc2ccccc2Cl)CC1)c1ccccc1", "Potency": "inconclusive: 8.2 µM [falling, partial curve, poor fit]"},
      {"compound": "COc1ccc(NC(=O)CN(C)CC(=O)NC2CCCCC2C)cc1", "note": "(stereo unspecified)", "Potency": "inactive"},
      {"compound": "CCCCCCc1cc2cc(S(=O)(=O)c3ccc(F)cc3)c(=O)oc2cc1O", "Potency": "inactive"},
      {"compound": "CCOC(=O)Cc1csc(NS(=O)(=O)c2ccc3ccccc3c2)n1", "Potency": "inactive"},
      {"compound": "CCN(CC)Cc1c[nH]c2c(C(=O)OC)cccc12", "Potency": "inconclusive: 6.51 µM [activator, full curve, poor fit]"},
      {"compound": "Cc1nc(-c2ccc(C(=O)Nc3cccc(Br)c3)cc2)cs1", "Potency": "active: 11.6 µM"},
      {"compound": "CC(C)C[C@H](NC(=O)c1[nH]cnc1C(=O)Nc1ccc(CNC(=O)OC(C)(C)C)cc1)C(=O)OC(C)(C)C", "Potency": "inconclusive: 32.6 µM [falling, single point]"},
      {"compound": "CC(C)(C)c1nnc(NC(=O)c2ccc3c(c2)OCO3)s1", "Potency": "inconclusive: 8.2 µM [activator, partial curve]"},
      {"compound": "Cc1cccc(-n2c(Cc3cc(=O)[nH]c(=O)[nH]3)nnc2SCC(=O)N2CCc3ccccc32)c1", "Potency": "inactive"},
      {"compound": "COc1cc(C(c2c(C)n(C)n(-c3ccccc3)c2=O)c2c(C)n(C)n(-c3ccccc3)c2=O)cc(Br)c1O", "Potency": "inconclusive: 0.0041 µM [falling, full curve, poor fit]"},
      {"compound": "Cc1ccc(C(=O)NNC(=O)c2ccc3ccccc3c2O)cc1", "Potency": "inconclusive: 18.4 µM [falling, partial curve, poor fit]"},
      {"compound": "Brc1cc(Br)c2nc(-c3ccc(N4CCOCC4)cc3)ccc2c1", "Potency": "inconclusive: 23.1 µM [activator, partial curve, poor fit]"},
      {"compound": "Cn1cccc1C(=O)NC(=O)COC(=O)c1ccc(S(C)(=O)=O)c([N+](=O)[O-])c1", "Potency": "inconclusive: 29.1 µM [falling, single point]"},
      {"compound": "COc1ccc(CN2CC(=O)N3[C@H]4c5ccc(OC)cc5OC[C@@H]4[C@H](c4ccccc4)[C@]3(C)C2=O)cc1", "Potency": "inactive"},
      {"compound": "O=S(=O)(c1ccc2nc(Nc3ccc(F)cc3)ccc2c1)N1CCCC1", "Potency": "inactive"},
      {"compound": "Cc1cc(SCC(=O)Nc2ncc(Cl)cc2Cl)nc2ccccc12", "Potency": "inactive"},
      {"compound": "CC(=O)NC(Cc1ccccc1C)C(=O)NC1CCN(C(=O)NCc2ccccc2)CC1", "note": "(stereo unspecified)", "Potency": "inconclusive: 3.66 µM [activator, full curve, poor fit]"}
    ]}
  ]
}
